From patent US4649191A (Gibson-Stephens Neuropharmaceuticals, Inc., priority 1984, dated 1987)

Assay: general procedure: Boc solid-phase peptide synthesis; Chloromethylated polystyrene resin crosslinked with 1% divinylbenzene (1.1 mmoles Cl/g)
Settings: whole synthesis

Substance: L-Cysteinyl-L-glutaminyl-L-histidyl-L phenylalanyl-D-arginyl-L-phenylalanyl-D-cysteinyl-cyclic (4-10) disulfide
- isolated mass: 318 mg
- isolated yield (scale 3.67 mmol): 9.2%
